Screen size: about 1,400 compounds; fewer than 10 were called active.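 The calls were made as follows: active = fluorescence-lowering compounds whose fitted half-maximal concentration is at or below ten times the highest valid dose tested; inconclusive = flat curve at 30 to 70% inhibition, or poor fit; inactive = the rest.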 Some of the results follow.
These compounds were tested against Histone deacetylase 3 (Homo sapiens) (UniProt O15379) (assay: inhibition of human HDAC3 enzymatic activity – biochemical, fluorescence, cherry-picked samples, counter-screen for JMJD2C/GASC1 demethylase inhibitor project, dose response (AID 485318;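 also: enzyme preincubated with compound before substrate and trypsin were added; 0% = neutral control wells and -100% = SAHA positive control wells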)). Conditions: recombinant HDAC3, fluorogenic peptide/trypsin coupled; at 12 µM (top of the series).

By UniProt entry, the sequences of proteins in these tests, tags left out. Where a name states a change or a piece, a line headed by the entry shows the natural chain unless it says otherwise.
UniProt O15379: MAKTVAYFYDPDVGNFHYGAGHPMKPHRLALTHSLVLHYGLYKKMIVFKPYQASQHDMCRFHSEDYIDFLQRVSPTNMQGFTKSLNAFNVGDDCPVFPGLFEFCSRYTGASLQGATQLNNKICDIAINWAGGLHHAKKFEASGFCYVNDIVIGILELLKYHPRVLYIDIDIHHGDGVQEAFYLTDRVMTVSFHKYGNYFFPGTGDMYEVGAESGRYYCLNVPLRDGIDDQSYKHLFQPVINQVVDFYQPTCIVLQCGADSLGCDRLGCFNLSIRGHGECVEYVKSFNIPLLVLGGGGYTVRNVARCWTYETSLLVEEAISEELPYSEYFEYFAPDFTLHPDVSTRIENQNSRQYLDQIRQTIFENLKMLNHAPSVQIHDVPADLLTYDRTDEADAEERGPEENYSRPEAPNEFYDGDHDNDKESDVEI

| Structure (SMILES) | activity change, negative = inhibition |
| --- | --- |
| CCN1CCN(c2ccc([N+](=O)[O-])cc2C=C2C(=O)NC(=O)NC2=O)CC1 | inactive: 0.372% |
| C=CCN1C(=O)NC(=O)/C(=C/c2ccoc2)C1=O | inactive: -0.856% |
| CN1CCN(c2nc3ccccn3c(=O)c2C=C2C(=O)N(C)C(=O)N(C)C2=O)CC1 | inactive: 0.276% |
| Cc1ccc2nc3c(cc2c1)CC1(C(=O)N(C)C(=O)N(C)C1=O)C1CCCCN31 (stereo not given) | inactive: 0.213% |
| COc1cc(Br)cc(CN2CCN(C)CC2)c1O | inactive: -0.0342% |
| O=C1NC(=O)C(=Cc2ccc(Sc3ccccc3)o2)C(=O)N1 | inactive: 0.579% |
| Cc1cccc(N2C(=O)NC(=O)/C(=C/c3ccc([N+](=O)[O-])o3)C2=O)c1 | inactive: -0.172% |
| CCN1C(=O)NC(=O)/C(=C\c2cn(CC(=O)N3CCCCC3)c3ccccc23)C1=O | inactive: 0.455% |
| O=P(OCC(F)(F)C(F)F)(N1CCCCC1)N1CCCCC1 | inactive: -8.65% |
| NCC(O)c1cc(O)c(O)cc1F (stereo not given) | inactive: 0.348% |
| O=C1NC(=S)N(C2CC2)C(=O)/C1=C/c1ccc2c(c1)CCN2CCCCl | inactive: 1.19% |
| CN1C(=O)C(Cc2ccc(OCc3ccccc3)cc2)C(=O)N(C)C1=O | inactive: 0.665% |
| CN1C(=O)N(C)C(=O)C2(Sc3ccccc3C2=O)C1=O | inactive: -0.135% |
| O=C1NC(=S)NC(=O)C1C1CCCCC1 | inactive: -0.34% |
| CC(=NCc1ccc(F)cc1)c1c(O)n(C)c(=O)n(C)c1=O | inactive: -0.161% |
| Cc1[nH]c2ccc(OC(F)(F)F)cc2c1CCNCc1cccc([N+](=O)[O-])c1 | inactive: 0.899% |
| Cc1cc(C)cc(OCCOc2cccc(C=C3C(=O)NC(=O)NC3=O)c2)c1 | inactive: 0.219% |
| N/C(=N\[N+](=O)[O-])N1CCN(C(=O)c2ccccc2)CC1 | inactive: 0.341% |
| CN1C(=O)N(C)C(=O)C2(Cc3ccccc3N3CCCC32)C1=O (stereo not given) | inactive: 0.633% |
| Cc1ccc2[nH]c(=S)n(-c3cccnc3)c(=O)c2c1 | inactive: 1.15% |
| COCc1cc(OC(=O)N(C)C)nc2c1c(C)nn2C | inactive: 0.491% |
| CCN1C(=O)C(=C/C=C/c2ccco2)C(=O)N(CC)C1=S | inactive: -0.423% |
| CN(C)c1ccc(/C=C2\C(=O)NC(=O)N(CCc3ccc(F)cc3)C2=O)cc1 | inactive: 0.301% |

Sorted by length of the SMILES (high to low): part of the list above

| Structure (SMILES) | activity change, negative = inhibition |
| --- | --- |
| CCN1C(=O)NC(=O)/C(=C\c2cn(CC(=O)N3CCCCC3)c3ccccc23)C1=O | inactive: 0.455% |
| CC(=NCc1ccc(F)cc1)c1c(O)n(C)c(=O)n(C)c1=O | inactive: -0.161% |
| COCc1cc(OC(=O)N(C)C)nc2c1c(C)nn2C | inactive: 0.491% |

Later entries

| Structure (SMILES) | activity change, negative = inhibition |
| --- | --- |
| CCN(CC)c1ccc(/C=C2\C(=O)NC(=O)N(CC3CCCO3)C2=O)cc1 (stereo not given) | inactive: 0.231% |
| C[C@@H]1CCC2[C@@H](C)C(=O)O[C@@H]3OC4(C)CCC1[C@@]23OO4 (stereo not given in full) | inactive: 0.176% |
| O=C1NC(=O)C(C(CC(=O)c2ccccc2)c2ccccc2)C(=O)N1 (stereo not given) | inactive: -0.623% |
| CCCCCSc1cc(O)c(C(CNC)C(C)C)cc1OC (stereo not given) | inactive: 0.059% |
| CC(C)(C)[C@]1(O)C[C@@H]2OC(=O)C[C@@]23C(=O)O[C@@H]2OC(=O)[C@@H](O)C213 (stereo not given in full) | inactive: -0.801% |
| Cc1sc2c(c1C)C(c1ccc(C(C)(C)C)cc1)=NCC(=O)N2CC(=O)Nc1nccs1 | inactive: 1.43% |
| O=C(c1cccs1)N1C2CCC1CC(O)(c1cccnc1)C2 (stereo not given) | inactive: 0.482% |
| C=CCn1c(C)c(C=C2C(=O)NC(=O)NC2=O)c2ccccc21 | inactive: -0.0299% |
| COc1cccc(N2C(=O)NC(=O)/C(=C/c3ccc4c(c3)Cc3ccccc3-4)C2=O)c1 | inactive: 0.465% |
| CN(C)[C@@H]1C(=O)C(C(N)=O)=C(O)[C@@]2(O)C(=O)C3=C(O)c4c(O)cccc4[C@@](C)(O)C3C[C@@H]12 (stereo not given in full) | inactive: 0.269% |
| CN1C(=O)C(Cc2ccsc2)C(=O)N(C)C1=O | inactive: 0.433% |
| N#CC(C#N)=Cc1ccc(O)c(O)c1 | inactive: 0.633% |
| CCOC(=O)C1=CC(=C2C(=O)N(CC)C(=S)N(CC)C2=O)c2ccccc2O1 | inactive: 0.0133% |
| C=CCC1C(=O)NC(=S)NC1=O | inactive: -0.29% |
| O=C1NC(=O)N(Cc2ccc(F)cc2)C(=O)/C1=C\C=C\c1ccco1 | inactive: -0.446% |
| CCCCOc1ccc(CC2C(=O)N(C)C(=O)N(C)C2=O)cc1 | inactive: -0.273% |
| CN1CCN(c2ccc(C=O)cc2)CC1 | inactive: -0.0296% |
| Cc1ccc2c(c1)=C/C(=C\c1c(O)[nH]c(=O)[nH]c1=O)C(=O)N=2 | inactive: 0.967% |
| O=C(N=Nc1c(O)[nH]c(=O)[nH]c1=O)C1COc2ccccc2O1 (stereo not given) | inactive: 0.00951% |
| CC1(C)CC(=O)C(C2(O)C(=O)NC(=O)NC2=O)=C(O)C1 | inactive: 0.491% |
| CN1C(=O)C(=Cc2ccc(N3CCCCCC3)cc2)C(=O)N(C)C1=O | inactive: 0.121% |
| Cc1cccc(N2C(=O)NC(=O)/C(=C/c3ccc(N4CCOCC4)cc3)C2=O)c1 | inactive: -0.336% |

Reference: PubChem BioAssay AID485318 (Broad Institute, 2010)
